Laboratory results reported in article PMC5035054.
These are yes or no findings as the source states them, for the method shown. Binding seen in cells or lysates may run through a third protein. Here binding means that the protein was enriched with, or labelled near, the bait; the list need not be complete.

Protein sequences, listed by entry. Tags and fused reporters are not part of them.
UniProt P08579: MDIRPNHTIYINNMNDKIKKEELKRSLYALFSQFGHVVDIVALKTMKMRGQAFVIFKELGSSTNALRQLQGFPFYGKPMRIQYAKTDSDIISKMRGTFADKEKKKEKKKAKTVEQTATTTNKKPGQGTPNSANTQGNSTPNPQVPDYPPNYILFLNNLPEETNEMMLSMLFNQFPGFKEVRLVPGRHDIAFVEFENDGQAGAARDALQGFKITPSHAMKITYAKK

Target: FLAG-V5-tagged U2-B” (FV5-U2-B”) (UniProt P08579)
Test: affinity purification with mass spectrometry; in vitro splicing reaction of NEB” nuclear extract with AdML pre-mRNA and ATPγS, Sephacryl-S500 gel filtration, pooled spliceosome fractions on anti-FLAG M2 Affinity Gel, mass spectrometry; two independent experiments

| Binder | binding |
| --- | --- |
| BAZ1B (protein, UniProt Q9UIG0 1-1483) MAPLLGRKPFPLVKPLPGEEPLFTIPHTQEAFRTREEYEARLERYSERIWTCKSTGSSQLTHKEAWEEEQEVAELLKEEFPAWYEKLVLEMVHHNTASLEKLVDTAWLEIMTKYAVGEECDFEVGKEKMLKVKIVKIHPLEKVDEEATEKKSDGACDSPSSDKENSSQIAQDHQKKETVVKEDEGRRESINDRARRSPRKLPTSLKKGERKWAPPKFLPHKYDVKLQNEDKIISNVPADSLIRTERPPNKEIVRYFIRHNALRAGTGENAPWVVEDELVKKYSLPSKFSDFLLDPYKYMTLNPSTKRKNTGSPDRKPSKKSKTDNSSLSSPLNPKLWCHVHLKKSLSGSPLKVKNSKNSKSPEEHLEEMMKMMSPNKLHTNFHIPKKGPPAKKPGKHSDKPLKAKGRSKGILNGQKSTGNSKSPKKGLKTPKTKMKQMTLLDMAKGTQKMTRAPRNSGGTPRTSSKPHKHLPPAALHLIAYYKENKDREDKRSALSCVISKTARLLSSEDRARLPEELRSLVQKRYELLEHKKRWASMSEEQRKEYLKKKREELKKKLKEKAKERREKEMLERLEKQKRYEDQELTGKNLPAFRLVDTPEGLPNTLFGDVAMVVEFLSCYSGLLLPDAQYPITAVSLMEALSADKGGFLYLNRVLVILLQTLLQDEIAEDYGELGMKLSEIPLTLHSVSELVRLCLRRSDVQEESEGSDTDDNKDSAAFEDNEVQDEFLEKLETSEFFELTSEEKLQILTALCHRILMTYSVQDHMETRQQMSAELWKERLAVLKEENDKKRAEKQKRKEMEAKNKENGKVENGLGKTDRKKEIVKFEPQVDTEAEDMISAVKSRRLLAIQAKKEREIQEREMKVKLERQAEEERIRKHKAAAEKAFQEGIAKAKLVMRRTPIGTDRNHNRYWLFSDEVPGLFIEKGWVHDSIDYRFNHHCKDHTVSGDEDYCPRSKKANLGKNASMNTQHGTATEVAVETTTPKQGQNLWFLCDSQKELDELLNCLHPQGIRESQLKERLEKRYQDIIHSIHLARKPNLGLKSCDGNQELLNFLRSDLIEVATRLQKGGLGYVEETSEFEARVISLEKLKDFGECVIALQASVIKKFLQGFMAPKQKRRKLQSEDSAKTEEVDEEKKMVEEAKVASALEKWKTAIREAQTFSRMHVLLGMLDACIKWDMSAENARCKVCRKKGEDDKLILCDECNKAFHLFCLRPALYEVPDGEWQCPACQPATARRNSRGRNYTEESASEDSEDDESDEEEEEEEEEEEEEDYEVAGLRLRPRKTIRGKHSVIPPAARSGRRPGKKPHSTRRSQPKAPPVDDAEVDELVLQTKRSSRRQSLELQKCEEILHKIVKYRFSWPFREPVTRDEAEDYYDVITHPMDFQTVQNKCSCGSYRSVQEFLTDMKQVFTNAEVYNCRGSHVLSCMVKTEQCLVALLHKHLPGHPYVRRKRKKFPDRLAEDEGDSEPEAVGQSRGRRQKK | binds |
| CDYL (protein, UniProt Q9Y232 1-598) MTFQASHRSAWGKSRKKNWQYEGPTQKLFLKRNNVSAPDGPSDPSISVSSEQSGAQQPPALQVERIVDKRKNKKGKTEYLVRWKGYDSEDDTWEPEQHLVNCEEYIHDFNRRHTEKQKESTLTRTNRTSPNNARKQISRSTNSNFSKTSPKALVIGKDHESKNSQLFAASQKFRKNTAPSLSSRKNMDLAKSGIKILVPKSPVKSRTAVDGFQSESPEKLDPVEQGQEDTVAPEVAAEKPVGALLGPGAERARMGSRPRIHPLVPQVPGPVTAAMATGLAVNGKGTSPFMDALTANGTTNIQTSVTGVTASKRKFIDDRRDQPFDKRLRFSVRQTESAYRYRDIVVRKQDGFTHILLSTKSSENNSLNPEVMREVQSALSTAAADDSKLVLLSAVGSVFCCGLDFIYFIRRLTDDRKRESTKMAEAIRNFVNTFIQFKKPIIVAVNGPAIGLGASILPLCDVVWANEKAWFQTPYTTFGQSPDGCSTVMFPKIMGGASANEMLLSGRKLTAQEACGKGLVSQVFWPGTFTQEVMVRIKELASCNPVVLEESKALVRCNMKMELEQANERECEVLKKIWGSAQGMDSMLKYLQRKIDEF | binds |
| MSL3 (protein, UniProt Q8N5Y2 1-521) MSASEGMKFKFHSGEKVLCFEPDPTKARVLYDAKIVDVIVGKDEKGRKIPEYLIHFNGWNRSWDRWAAEDHVLRDTDENRRLQRKLARKAVARLRSTGRKKKRCRLPGVDSVLKGLPTEEKDENDENSLSSSSDCSENKDEEISEESDIEEKTEVKEEPELQTRREMEERTITIEIPEVLKKQLEDDCYYINRRKRLVKLPCQTNIITILESYVKHFAINAAFSANERPRHHHVMPHANMNVHYIPAEKNVDLCKEMVDGLRITFDYTLPLVLLYPYEQAQYKKVTSSKFFLPIKESATSTNRSQEELSPSPPLLNPSTPQSTESQPTTGEPATPKRRKAEPEALQSLRRSTRHSANCDRLSESSASPQPKRRQQDTSASMPKLFLHLEKKTPVHSRSSSPIPLTPSKEGSAVFAGFEGRRTNEINEVLSWKLVPDNYPPGDQPPPPSYIYGAQHLLRLFVKLPEILGKMSFSEKNLKALLKHFDLFLRFLAEYHDDFFPESAYVAACEAHYSTKNPRAIY | binds |

More lines, now with the values ahead:

| binding | Binder |
| --- | --- |
| binds | ZBTB4 (protein, UniProt Q9P1Z0 1-1013) MPPPAEVTDPSHAPAVLRQLNEQRLRGLFCDVTLIAGDTKFPAHRSVLAASSPFFREALLTSAPLPLPPATGGAAPNPATTTAASSSSSSSSSSSSSSSSASSSSSSSSSSPPPASPPASSPPRVLELPGVPAAAFSDVLNFIYSARLALPGGGGDGAAVAEIGALGRRLGISRLQGLGEGGDAWVPPTPAPMATSQPEEDSFGPGPRPAGEWEGDRAEAQAPDLQCSLPRRPLPCPQCGKSFIHPKRLQTHEAQCRRGASTRGSTGLGAGGAGPGGPAGVDASALPPPVGFRGGPEHVVKVVGGHVLYVCAACERSYVTLSSLKRHSNVHSWRRKYPCRYCEKVFALAEYRTKHEVWHTGERRYQCIFCWETFVTYYNLKTHQRAFHGISPGLLASEKTPNGGYKPKLNTLKLYRLLPMRAAKRPYKTYSQGAPEAPLSPTLNTPAPVAMPASPPPGPPPAPEPGPPPSVITFAHPAPSVIVHGGSSSGGGGSGTASTGGSQAASVITYTAPPRPPKKREYPPPPPEPAATPTSPATAVSPATAAGPAMATTTEEAKGRNPRAGRTLTYTAKPVGGIGGGGGPPTGAGRGPSQLQAPPPLCQITVRIGEEAIVKRRISETDLRPGELSGEEMEESEEDEEEEDEEEEEEDEEESKAGGEDQLWRPYYSYKPKRKAGAAGGASVGGSGLPRGRRPPRWRQKLERRSWEETPAAESPAGRARTERRHRCGDCAQTFTTLRKLRKHQEAHGGGSHSSRAGRRPSTRFTCPHCAKVCKTAAALSRHGQRHAAERPGGTPTPVIAYSKGSAGTRPGDVKEEAPQEMQVSSSSGEAGGGSTAAEEASETASLQDPIISGGEEPPVVASGGSYVYPPVQEFPLALIGGGREPGGGRGKSGSEGPVGAGEGDRMEGIGAAKVTFYPEPYPLVYGPQLLAAYPYNFSNLAALPVALNMVLPDEKGAGALPFLPGVFGYAVNPQAAPPAPPTPPPPTLPPPIPPKGEGERAGVERTQKGDVG |
| binds | SNW1 (protein, UniProt Q13573 1-536) MALTSFLPAPTQLSQDQLEAEEKARSQRSRQTSLVSSRREPPPYGYRKGWIPRLLEDFGDGGAFPEIHVAQYPLDMGRKKKMSNALAIQVDSEGKIKYDAIARQGQSKDKVIYSKYTDLVPKEVMNADDPDLQRPDEEAIKEITEKTRVALEKSVSQKVAAAMPVRAADKLAPAQYIRYTPSQQGVAFNSGAKQRVIRMVEMQKDPMEPPRFKINKKIPRGPPSPPAPVMHSPSRKMTVKEQQEWKIPPCISNWKNAKGYTIPLDKRLAADGRGLQTVHINENFAKLAEALYIADRKAREAVEMRAQVERKMAQKEKEKHEEKLREMAQKARERRAGIKTHVEKEDGEARERDEIRHDRRKERQHDRNLSRAAPDKRSKLQRNENRDISEVIALGVPNPRTSNEVQYDQRLFNQSKGMDSGFAGGEDEIYNVYDQAWRGGKDMAQSIYRPSKNLDKDMYGDDLEARIKTNRFVPDKEFSGSDRRQRGREGPVQFEEDPFGLDKFLEEAKQHGGSKRPSDSSRPKEHEHEGKKRRKE |
